Paper PMC7522278
No constants are given. Whether binding was seen depends on the method and setting. Binding seen in cells or lysates may run through a third protein. Some binding calls cover weakened binding; strength is not graded here. For some of these results: Where a sequence is shown, tags or fusion partners need not be part of it.

The chains behind the UniProt entries cited, without tags or fusion partners.
UniProt Q13164: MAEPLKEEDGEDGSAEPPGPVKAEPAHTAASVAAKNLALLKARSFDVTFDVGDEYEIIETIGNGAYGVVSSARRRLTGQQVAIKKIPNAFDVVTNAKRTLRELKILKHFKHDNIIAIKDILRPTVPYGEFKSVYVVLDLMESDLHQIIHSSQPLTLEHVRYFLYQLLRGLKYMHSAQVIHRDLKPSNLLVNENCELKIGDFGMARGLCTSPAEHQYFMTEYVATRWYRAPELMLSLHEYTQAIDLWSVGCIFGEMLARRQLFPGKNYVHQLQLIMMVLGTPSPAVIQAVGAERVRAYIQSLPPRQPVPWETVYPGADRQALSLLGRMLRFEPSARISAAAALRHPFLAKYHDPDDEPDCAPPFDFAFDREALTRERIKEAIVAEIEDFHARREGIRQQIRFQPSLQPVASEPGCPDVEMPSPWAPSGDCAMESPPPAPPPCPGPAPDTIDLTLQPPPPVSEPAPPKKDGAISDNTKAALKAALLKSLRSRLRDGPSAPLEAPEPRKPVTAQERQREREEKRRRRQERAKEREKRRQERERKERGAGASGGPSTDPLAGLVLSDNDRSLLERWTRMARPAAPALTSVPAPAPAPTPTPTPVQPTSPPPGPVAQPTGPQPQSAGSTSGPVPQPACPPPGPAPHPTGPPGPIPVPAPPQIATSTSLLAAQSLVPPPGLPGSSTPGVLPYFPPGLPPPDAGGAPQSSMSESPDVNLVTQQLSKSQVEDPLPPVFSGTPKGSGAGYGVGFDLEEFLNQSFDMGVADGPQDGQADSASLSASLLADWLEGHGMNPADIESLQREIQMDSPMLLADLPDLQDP
UniProt P27361: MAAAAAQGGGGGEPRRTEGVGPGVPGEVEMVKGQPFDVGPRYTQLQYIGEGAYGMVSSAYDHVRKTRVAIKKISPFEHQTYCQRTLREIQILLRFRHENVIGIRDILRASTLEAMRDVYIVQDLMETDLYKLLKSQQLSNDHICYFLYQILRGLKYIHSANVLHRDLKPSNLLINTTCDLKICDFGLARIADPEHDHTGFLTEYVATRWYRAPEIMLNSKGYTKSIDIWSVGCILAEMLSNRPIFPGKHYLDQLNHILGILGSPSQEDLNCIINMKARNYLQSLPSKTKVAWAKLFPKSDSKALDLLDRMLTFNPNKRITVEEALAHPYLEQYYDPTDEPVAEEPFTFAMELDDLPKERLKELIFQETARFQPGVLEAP

T1: SFB-tagged full length (FL) DHPS (human) (UniProt P49366)
T1 sequence: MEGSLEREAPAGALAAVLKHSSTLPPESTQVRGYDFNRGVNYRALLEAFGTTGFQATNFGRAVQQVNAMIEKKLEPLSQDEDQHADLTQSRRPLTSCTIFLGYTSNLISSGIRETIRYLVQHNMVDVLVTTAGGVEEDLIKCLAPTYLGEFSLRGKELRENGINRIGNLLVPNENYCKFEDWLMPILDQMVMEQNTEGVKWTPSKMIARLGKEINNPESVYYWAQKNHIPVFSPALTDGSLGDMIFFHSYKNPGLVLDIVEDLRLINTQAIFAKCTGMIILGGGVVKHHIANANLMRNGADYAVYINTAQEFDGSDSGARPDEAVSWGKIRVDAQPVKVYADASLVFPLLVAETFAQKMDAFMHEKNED

T2: C-terminal SFB-tagged DHPS (human) (UniProt P49366)
T2 sequence: T1 sequence

T3: N-terminal SFB-tagged DHPS (human) (UniProt P49366)
T3 sequence: T1 sequence

B1: endogenous DHPS (enzyme, UniProt P49366 1-369)
chain: T1 sequence

Columns and labels:
Assay in all cases: co-IP; SFB-tagged bait transiently expressed in HEK293T; lysate in NETN buffer, S protein beads 2 h at 4 °C, three washes, Western blot; also with mock- or PMA-treated cells (binding not affected)
[1] = target: T1, SFB-tagged full length (FL) DHPS (human)
[2] = target: T2, C-terminal SFB-tagged DHPS (human)
[3] = target: T3, N-terminal SFB-tagged DHPS (human)
control protein ERK5 = control protein ERK5 (UniProt Q13164)

Row | Molecule | binding [1] | binding [2] | binding [3] | binding (control protein ERK5)
1 | endogenous ERK1 (from UniProt P27361 1-379) (enzyme) | binds | binds | binds | –
2 | B1 | – | – | – | no binding
